Values of other authors in patent US20210338558A1, “USE OF COLLAGEN BINDING DOMAINS TO DELIVER PRODUCTS TO SKIN” (Fabius Biotechnology, priority 2018, published 2021).

Details: water at ambient temperatures; cited from earlier work

## O=C(O)c1ccccc1O [Salicylic acid]
  solubility in water: practically insoluble
